Test results from patent US8378115B2, “Monomethine dyes” (Thermo Fisher Scientific (Milwaukee) LLC, priority 2007, dated 2013).

What was measured:
Type in all cases: binding
40mer dsDNA = experiment: Fluorescence enhancement of dye with 40mer dsDNA
Method: (§1) Stock solutions (8 mM) of each dye were prepared by dissolving each compound in dimethylsulfoxide (DMSO). Stock dye solutions were diluted to a desired concentration in tris-EDTA (TE) buffer (10 mM Tris, 1 mM EDTA, pH 8.0) immediately prior to use.
(§2) Stock solutions of λDNA and 40mer synthetic oligonucleotides (dsDNA and ssDNA), each at a concentration of 40 μM, were prepared in TE buffer. All DNA concentrations described are in base pairs of nucleotides. The DNA stock solutions were diluted to a desired concentration in TE buffer before being mixed with diluted dye solutions.
(§3) Fluorescence enhancement measurements of each dye were obtained by incubating dyes with λDNA, 40mer dsDNA, or 40mer ssDNA at a final concentration of 0.8 μM dye and 3.2 μM DNA for one minute. Fluorescence scans of the samples were performed with excitation wavelengths corresponding to the absorption maxima of the dyes. The resulting fluorescence intensities were compared to fluorescence intensities of Thiazole Orange (TO) and a compound equivalent to SYBR Green without the side chain (V02-06101), shown below,
(§4) [drawing 15] binding to λDNA, 40mer dsDNA, or 40mer ssDNA at a final concentration of 0.8 μM TO and 3.2 μM DNA for one minute, the same as for the tested dyes. The discrimination ratio between dsDNA and ssDNA was calculated by comparing the fluorescence intensities.

40-mer ss-DNA = experiment: Absorption spectra of dye-DNA complex, 40-mer ss-DNA
λDNA = experiment: Fluorescence enhancement of dye with λDNA; conditions: λ DNA (Table 3)
Method: as §1, §2, §3, §4

40-mer ds-DNA = experiment: Absorption spectra of dye-DNA complex, 40-mer ds-DNA
λ DNA = experiment: Absorption spectra of dye-DNA complex, λ DNA; conditions: 8 μM dye, 8 μM DNA, TE buffer (Table 2)
rRNA [1] = experiment: Absorption spectra of dye in the presence of rRNA; conditions: rRNA (Table 4)
40mer ssDNA = experiment: Fluorescence of dye with 40mer ssDNA; conditions: 40-mer ss-DNA (Table 5)
rRNA [2] = experiment: Fluorescence of dye with rRNA; conditions: for λem: rRNA (Table 5)
[3] = 40-mer ss-DNA, 8 μM dye, 8 μM DNA, TE buffer (Table 2)
[4] = 40-mer ds-DNA, 8 μM dye, 8 μM DNA, TE buffer (Table 2)

SMILES	λem (40mer dsDNA; 40-mer ds-DNA (Table 3)) [nm]	λex (40-mer ss-DNA; [3])	λem (λDNA) [nm]	ε (40-mer ds-DNA; [4])	λex (40-mer ds-DNA; [4])	λex (λ DNA)	ε (rRNA [1])	λex (rRNA [1])	λex (40-mer ss-DNA; 40-mer ss-DNA (Table 4))	ε (40-mer ds-DNA; 40-mer ds-DNA (Table 4))	λex (40-mer ds-DNA; 40-mer ds-DNA (Table 4))	λem (40mer dsDNA; 40-mer ds-DNA (Table 5)) [nm]	λem (40mer ssDNA) [nm]	λem (rRNA [2]) [nm]	maximum emission of dye/DNA complex (40mer dsDNA; FIG. 9) [nm]	red shift between RNA and DNA binding (rRNA [2]) [nm]	fluorescence of dye by itself (rRNA [2]; FIG. 9)	maximum emission in the presence of rRNA (rRNA [2]; FIG. 9) [nm]
CCN(CC)c1ccc2c(C=C3Sc4ccccc4N3CC)cc(C(C)(C)C)[o+]c2c1 [Dye V02-06124]	568	509 nm	568	22,063	521 nm	526 nm												
CCN1C(=Cc2cc(-c3ccccc3)[o+]c3cc(OC)ccc23)Sc2ccccc21 [Dye V02-06132]		487 nm		14,800	488 nm	494 nm	24,235	475 nm	494 nm	14,800	488 nm							
CCN(CC)c1ccc2c(C=C3Oc4ccccc4N3CC)cc(C(C)(C)C)[o+]c2c1 [Dye V02-06136]	533	487 nm	533	29,450	492 nm	494 nm												
CCN(CC)c1ccc2c(/C=C3\Sc4ccccc4N3CC)cc(-c3ccccc3)[o+]c2c1 [Dye V02-06187]	610	529 (560s) nm	610	15,800	529 (560s) nm	531 (560s) nm												
CCN(CC)c1ccc2c(/C=C3\Oc4ccccc4N3CC)cc(-c3ccccc3)[o+]c2c1 [Dye V02-06188]	580	508 (530s) nm	580	19,755	508 (530s) nm	508 (530s) nm												
CCN(CCCN(C)C)c1ccc2c(/C=C3\Sc4ccccc4N3CC)cc(C(C)(C)C)[o+]c2c1 [Dye V02-07015]	558	503 nm	558	20,520	516 nm	525 nm			503 nm	20,520	516 nm	558	561					
CCN(CC)c1ccc2c(/C=C3\Sc4ccccc4N3C)cc(N(C)CCCN(C)C)[o+]c2c1 [Dye V02-07027]	515	456 nm	515	24,519	478 nm	480 nm			456 nm	24,519	478 nm	515	514					
CCN(CC)c1ccc2c(N(C)CCCN(C)C)cc(/C=C3\Sc4ccccc4N3C)[o+]c2c1 [Dye V02-07108]	569	475 nm	564	18,340	468 nm	496 nm	21,140	479 nm	475 nm	18,348	468 nm	565	572	568				
CCN(CC)c1ccc2c(/C=C3\Sc4ccccc4N3C)cc(N(C)CCC[N+](C)(C)C)[o+]c2c1 [Dye V11-02190]	520	485 nm	532	15,024	485 nm	485 nm	13,134	485 nm	485 nm	15,024	485 nm	520	516	516				
CCN(CC)c1ccc2c(/C=C3\Sc4ccccc4N3C)cc(N3CC[N+](C)(CCO)CC3)[o+]c2c1 [Dye V11-03001]	540	489 nm	540	41,096	489 nm	489 nm	36,499	552 nm	489 nm	41,096	489 nm	540	540	552	540	12	not fluorescent by itself	552
CCN1c2cc3[o+]c(N(C)CCCN(C)C)cc(/C=C4\Sc5ccccc5N4C)c3cc2C(C)=CC1(C)C [Dye V12-02144]	548	448 nm	546	22,356	488 nm	492 nm	21,445	449 (493 nm	448 nm	22,356	488 nm	546	553	551				
CCN(CC)c1ccc2c(c1)O/C(=C\c1cc(N(C)CCCN(C)C)[o+]c3cc(N(CC)CC)ccc13)C=C2C [Dye V13-01026]	635	550 (593s) nm	635	25,110	550 (593s) nm	545 (593s) nm												
CCN(CC)c1ccc2c(/C=C3\Sc4ccccc4N3C)cc(N3CCN(CCO)CC3)[o+]c2c1 [Dye V13-01184]	540	443 nm	540	32,935	476 nm	481 nm	28,940	442 nm	443 nm	32,935	476 nm	540	544	549				
CCCN(CCCN(C)C)C1=C/C(=C\c2sc3ccccc3[n+]2C)c2ccccc2N1c1ccccc1 [SYBR Green, reference compound]	524	494 nm	524	69,225	494 nm	492 nm			494 nm	69,225	494 nm	524	533	525				
CN1C(=Cc2cc[n+](C)c3ccccc23)Sc2ccccc21 [TO, Thiazole Orange, reference compound]	530	475 (499s) nm	530	32,613	502 (485s) nm	504 (485s) nm			475 (499s) nm	32,613	502 (485s) nm	530	535	533				
